{
  "sequences": {"note": "Protein sequences, listed by entry. Tags and fused reporters are not part of them. Lines headed by an entry give the natural chain unless they say otherwise; changes in a name come on top.", "UniProt Q7L576": "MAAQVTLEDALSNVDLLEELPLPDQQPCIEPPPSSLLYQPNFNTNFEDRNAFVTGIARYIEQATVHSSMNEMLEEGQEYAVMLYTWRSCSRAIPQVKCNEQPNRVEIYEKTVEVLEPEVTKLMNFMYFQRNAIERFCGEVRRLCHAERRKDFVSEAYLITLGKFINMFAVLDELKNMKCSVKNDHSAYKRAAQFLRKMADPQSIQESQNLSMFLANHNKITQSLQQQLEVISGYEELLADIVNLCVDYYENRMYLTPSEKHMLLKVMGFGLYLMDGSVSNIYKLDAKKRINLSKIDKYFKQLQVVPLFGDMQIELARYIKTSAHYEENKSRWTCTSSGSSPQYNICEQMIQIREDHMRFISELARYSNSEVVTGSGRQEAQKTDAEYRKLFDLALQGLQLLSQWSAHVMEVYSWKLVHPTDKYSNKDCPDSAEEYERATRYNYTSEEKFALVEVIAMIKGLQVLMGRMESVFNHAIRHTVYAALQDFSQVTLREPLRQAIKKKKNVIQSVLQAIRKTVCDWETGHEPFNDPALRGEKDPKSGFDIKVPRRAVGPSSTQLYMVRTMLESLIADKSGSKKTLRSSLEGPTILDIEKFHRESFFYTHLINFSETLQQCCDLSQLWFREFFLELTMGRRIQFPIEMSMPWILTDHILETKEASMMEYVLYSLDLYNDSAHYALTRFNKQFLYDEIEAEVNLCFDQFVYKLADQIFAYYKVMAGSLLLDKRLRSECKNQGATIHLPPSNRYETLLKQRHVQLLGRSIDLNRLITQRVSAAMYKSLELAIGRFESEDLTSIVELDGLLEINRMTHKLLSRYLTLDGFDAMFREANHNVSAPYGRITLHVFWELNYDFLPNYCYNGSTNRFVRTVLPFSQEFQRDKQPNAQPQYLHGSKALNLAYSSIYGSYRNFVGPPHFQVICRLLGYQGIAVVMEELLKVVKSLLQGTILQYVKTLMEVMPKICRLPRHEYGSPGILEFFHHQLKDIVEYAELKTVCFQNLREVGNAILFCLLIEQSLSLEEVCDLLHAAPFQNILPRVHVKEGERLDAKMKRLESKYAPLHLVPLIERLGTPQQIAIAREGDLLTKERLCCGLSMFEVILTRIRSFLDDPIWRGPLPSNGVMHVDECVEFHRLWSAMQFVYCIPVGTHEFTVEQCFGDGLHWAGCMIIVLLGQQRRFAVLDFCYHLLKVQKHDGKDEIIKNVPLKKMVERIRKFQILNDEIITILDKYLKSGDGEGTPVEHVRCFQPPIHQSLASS", "UniProt Q71SY5": "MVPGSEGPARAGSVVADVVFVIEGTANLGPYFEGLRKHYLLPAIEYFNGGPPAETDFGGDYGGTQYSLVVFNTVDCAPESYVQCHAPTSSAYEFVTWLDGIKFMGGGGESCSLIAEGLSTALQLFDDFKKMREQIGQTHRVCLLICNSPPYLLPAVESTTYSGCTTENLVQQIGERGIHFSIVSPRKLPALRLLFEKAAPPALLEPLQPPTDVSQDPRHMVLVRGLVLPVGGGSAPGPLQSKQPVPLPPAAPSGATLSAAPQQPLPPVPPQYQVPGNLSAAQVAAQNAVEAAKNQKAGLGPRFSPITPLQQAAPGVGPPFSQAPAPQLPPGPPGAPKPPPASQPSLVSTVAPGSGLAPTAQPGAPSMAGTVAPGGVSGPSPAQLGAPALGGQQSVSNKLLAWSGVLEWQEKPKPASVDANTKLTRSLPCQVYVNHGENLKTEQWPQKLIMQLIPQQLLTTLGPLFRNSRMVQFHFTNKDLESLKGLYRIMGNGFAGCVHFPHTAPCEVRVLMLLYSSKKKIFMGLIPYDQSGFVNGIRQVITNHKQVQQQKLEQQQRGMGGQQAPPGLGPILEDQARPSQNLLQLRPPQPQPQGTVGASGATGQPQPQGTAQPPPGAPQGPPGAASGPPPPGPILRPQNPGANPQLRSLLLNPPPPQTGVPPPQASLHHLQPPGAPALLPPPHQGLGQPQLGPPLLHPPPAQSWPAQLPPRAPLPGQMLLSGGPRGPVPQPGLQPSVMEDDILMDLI", "UniProt Q86V85": "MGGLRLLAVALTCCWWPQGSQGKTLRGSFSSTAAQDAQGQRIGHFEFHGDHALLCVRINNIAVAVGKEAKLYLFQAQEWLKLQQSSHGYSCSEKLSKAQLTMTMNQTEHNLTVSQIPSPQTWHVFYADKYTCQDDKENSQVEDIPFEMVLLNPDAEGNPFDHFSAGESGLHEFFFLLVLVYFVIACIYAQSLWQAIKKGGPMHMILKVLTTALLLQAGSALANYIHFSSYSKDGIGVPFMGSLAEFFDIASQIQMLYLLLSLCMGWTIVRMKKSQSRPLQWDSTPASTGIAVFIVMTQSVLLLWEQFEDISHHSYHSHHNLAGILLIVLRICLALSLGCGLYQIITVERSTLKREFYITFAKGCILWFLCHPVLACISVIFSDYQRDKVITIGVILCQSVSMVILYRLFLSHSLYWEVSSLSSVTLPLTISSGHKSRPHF", "UniProt Q75QN2, whole entry": "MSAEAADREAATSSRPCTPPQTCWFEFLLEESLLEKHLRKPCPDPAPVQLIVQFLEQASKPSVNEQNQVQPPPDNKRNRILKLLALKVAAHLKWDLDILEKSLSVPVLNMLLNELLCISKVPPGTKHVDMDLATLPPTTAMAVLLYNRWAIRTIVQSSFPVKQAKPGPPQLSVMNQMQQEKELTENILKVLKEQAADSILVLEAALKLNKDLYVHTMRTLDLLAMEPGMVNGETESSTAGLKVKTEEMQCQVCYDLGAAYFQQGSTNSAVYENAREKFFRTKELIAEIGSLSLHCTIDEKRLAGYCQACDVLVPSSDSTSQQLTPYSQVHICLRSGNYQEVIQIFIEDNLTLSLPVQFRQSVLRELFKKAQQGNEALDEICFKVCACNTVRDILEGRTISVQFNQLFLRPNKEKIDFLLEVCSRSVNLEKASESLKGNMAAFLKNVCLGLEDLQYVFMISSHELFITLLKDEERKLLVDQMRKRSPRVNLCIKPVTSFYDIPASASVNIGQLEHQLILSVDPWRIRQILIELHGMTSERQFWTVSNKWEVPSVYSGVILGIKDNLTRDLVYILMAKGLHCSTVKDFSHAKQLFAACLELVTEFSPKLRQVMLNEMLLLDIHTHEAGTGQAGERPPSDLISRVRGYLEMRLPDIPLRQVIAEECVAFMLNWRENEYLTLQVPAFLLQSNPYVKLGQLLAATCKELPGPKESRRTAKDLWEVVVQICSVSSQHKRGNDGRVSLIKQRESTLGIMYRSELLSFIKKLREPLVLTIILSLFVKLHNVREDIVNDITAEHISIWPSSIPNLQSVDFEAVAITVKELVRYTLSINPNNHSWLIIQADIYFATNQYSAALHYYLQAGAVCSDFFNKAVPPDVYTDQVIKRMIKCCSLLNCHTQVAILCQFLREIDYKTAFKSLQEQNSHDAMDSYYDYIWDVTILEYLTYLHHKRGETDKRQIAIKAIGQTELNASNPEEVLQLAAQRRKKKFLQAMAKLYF", "UniProt Q7Z4H3": "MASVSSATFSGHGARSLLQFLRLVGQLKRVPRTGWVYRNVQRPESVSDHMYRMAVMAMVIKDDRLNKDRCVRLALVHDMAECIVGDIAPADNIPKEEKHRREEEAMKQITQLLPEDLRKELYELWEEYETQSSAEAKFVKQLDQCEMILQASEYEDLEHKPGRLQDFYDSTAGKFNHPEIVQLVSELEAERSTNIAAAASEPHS", "UniProt Q7L4I2": "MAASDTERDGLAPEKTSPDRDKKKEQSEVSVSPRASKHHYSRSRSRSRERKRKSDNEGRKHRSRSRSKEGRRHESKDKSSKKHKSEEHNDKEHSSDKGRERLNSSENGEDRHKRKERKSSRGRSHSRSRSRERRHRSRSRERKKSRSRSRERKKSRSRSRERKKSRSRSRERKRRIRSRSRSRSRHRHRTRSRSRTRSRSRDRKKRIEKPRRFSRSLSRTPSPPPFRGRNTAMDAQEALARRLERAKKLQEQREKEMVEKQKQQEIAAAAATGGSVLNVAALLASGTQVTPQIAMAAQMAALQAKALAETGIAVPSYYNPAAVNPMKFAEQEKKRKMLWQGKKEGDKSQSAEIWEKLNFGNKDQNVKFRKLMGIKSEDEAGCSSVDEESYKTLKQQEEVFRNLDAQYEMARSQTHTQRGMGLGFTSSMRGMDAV", "UniProt Q7Z434": "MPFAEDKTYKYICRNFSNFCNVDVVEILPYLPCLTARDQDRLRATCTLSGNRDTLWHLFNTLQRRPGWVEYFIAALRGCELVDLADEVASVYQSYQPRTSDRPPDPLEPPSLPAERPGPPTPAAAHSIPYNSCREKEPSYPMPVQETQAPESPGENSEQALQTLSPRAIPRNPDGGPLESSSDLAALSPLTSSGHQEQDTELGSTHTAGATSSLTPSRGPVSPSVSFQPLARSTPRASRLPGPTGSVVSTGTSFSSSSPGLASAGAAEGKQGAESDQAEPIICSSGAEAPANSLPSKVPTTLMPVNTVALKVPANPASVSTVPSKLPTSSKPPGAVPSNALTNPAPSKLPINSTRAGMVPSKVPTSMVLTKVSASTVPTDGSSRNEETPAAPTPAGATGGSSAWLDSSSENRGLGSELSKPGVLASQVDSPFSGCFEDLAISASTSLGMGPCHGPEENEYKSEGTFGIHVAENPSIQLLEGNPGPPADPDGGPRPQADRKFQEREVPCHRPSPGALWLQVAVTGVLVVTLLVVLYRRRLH", "UniProt Q6PI26": "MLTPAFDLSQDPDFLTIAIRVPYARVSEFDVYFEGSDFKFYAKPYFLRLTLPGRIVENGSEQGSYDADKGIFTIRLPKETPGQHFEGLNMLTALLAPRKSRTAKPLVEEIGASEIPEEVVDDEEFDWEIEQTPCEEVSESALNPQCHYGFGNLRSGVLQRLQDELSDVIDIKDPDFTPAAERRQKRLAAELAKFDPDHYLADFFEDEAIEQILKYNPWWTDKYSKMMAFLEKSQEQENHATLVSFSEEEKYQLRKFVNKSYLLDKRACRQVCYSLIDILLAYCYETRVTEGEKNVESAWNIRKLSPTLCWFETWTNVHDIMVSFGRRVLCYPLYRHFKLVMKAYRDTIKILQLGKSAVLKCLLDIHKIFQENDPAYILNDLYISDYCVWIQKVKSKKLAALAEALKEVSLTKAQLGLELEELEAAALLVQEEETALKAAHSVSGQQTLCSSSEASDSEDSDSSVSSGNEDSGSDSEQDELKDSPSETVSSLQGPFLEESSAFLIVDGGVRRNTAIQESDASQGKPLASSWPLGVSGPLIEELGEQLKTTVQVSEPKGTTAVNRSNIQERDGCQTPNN", "UniProt Q6PJW8": "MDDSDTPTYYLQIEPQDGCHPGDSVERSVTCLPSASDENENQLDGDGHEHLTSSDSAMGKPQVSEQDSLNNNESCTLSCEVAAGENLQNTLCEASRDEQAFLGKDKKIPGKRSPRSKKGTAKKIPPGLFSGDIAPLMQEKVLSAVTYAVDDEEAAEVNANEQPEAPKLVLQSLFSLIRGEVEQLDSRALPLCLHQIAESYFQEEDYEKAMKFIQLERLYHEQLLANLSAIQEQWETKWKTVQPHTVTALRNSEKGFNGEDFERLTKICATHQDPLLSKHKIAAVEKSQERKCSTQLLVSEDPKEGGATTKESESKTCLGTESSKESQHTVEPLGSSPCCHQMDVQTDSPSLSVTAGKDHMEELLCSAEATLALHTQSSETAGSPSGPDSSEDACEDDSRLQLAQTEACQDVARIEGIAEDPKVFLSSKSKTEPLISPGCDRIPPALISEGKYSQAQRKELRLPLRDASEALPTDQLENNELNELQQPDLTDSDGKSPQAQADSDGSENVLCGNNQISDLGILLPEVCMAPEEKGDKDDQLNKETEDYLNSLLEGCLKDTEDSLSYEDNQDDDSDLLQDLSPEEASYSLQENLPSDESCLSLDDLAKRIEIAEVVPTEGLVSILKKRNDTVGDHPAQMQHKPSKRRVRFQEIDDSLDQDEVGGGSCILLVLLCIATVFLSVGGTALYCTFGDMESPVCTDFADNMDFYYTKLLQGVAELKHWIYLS", "UniProt Q86WV6": "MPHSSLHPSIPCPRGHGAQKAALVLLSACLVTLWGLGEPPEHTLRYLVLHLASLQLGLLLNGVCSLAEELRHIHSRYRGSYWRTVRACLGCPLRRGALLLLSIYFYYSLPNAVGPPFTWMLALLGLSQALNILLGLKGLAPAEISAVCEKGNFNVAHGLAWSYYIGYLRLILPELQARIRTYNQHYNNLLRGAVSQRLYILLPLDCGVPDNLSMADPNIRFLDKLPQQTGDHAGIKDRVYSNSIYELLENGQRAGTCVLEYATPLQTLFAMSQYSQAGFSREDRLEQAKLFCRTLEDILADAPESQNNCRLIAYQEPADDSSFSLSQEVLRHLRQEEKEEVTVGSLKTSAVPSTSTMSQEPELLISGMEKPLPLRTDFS", "UniProt Q7Z6V5": "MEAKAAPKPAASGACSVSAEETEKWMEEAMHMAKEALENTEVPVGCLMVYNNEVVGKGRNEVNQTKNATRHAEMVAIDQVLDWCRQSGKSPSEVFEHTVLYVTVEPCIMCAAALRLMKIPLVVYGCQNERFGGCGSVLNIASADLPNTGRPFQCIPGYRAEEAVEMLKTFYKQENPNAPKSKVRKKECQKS", "UniProt Q7RTV0, whole entry, looked up": "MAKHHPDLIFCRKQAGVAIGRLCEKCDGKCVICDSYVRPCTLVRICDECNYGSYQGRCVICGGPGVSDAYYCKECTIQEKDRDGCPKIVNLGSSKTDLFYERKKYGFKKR"},
  "source": "the supplement of paper PMC6411743",
  "note": "± gives the standard deviation of the averaged measurements. The list shows a part of the results, in another mix than the full data. Small differences around the control level are noise.",
  "data": [
    {"compound": "Nc1ncnc2c1ncn2[C@@H]1O[C@H](COP(=O)(O)OP(=O)(O)OP(=O)(O)O)[C@@H](O)[C@H]1O [adenosine triphosphate]", "experiment": "NP40-soluble protein abundance relative to vehicle (solubility fold change) (ratio); higher = more soluble protein in presence of ATP", "details": "concentration: 0.1mM", "outline": "(§1)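 Data come from three independent experiments in which Dounce-homogenised Jurkat crude lysate was treated at eight concentrations from 0.1 to 10 mM. Treatment ran 10 min at room temperature and then 3 min at 37 °C, after which 0.8% NP40 and benzonase were added for 60 min at 4 °C before ultracentrifugation. The supernatant underwent TMT labelling and LC-MS/MS, and vsn-normalised intensities were expressed as fold change against the detergent-processed vehicle in each replicate.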", "values": [
      {"target": "CYFIP1 (UniProt Q7L576)", "NP40-soluble protein abundance": "1.06 ± 0.091"},
      {"target": "UniProt Q71SY5 and related entries", "NP40-soluble protein abundance": "0.904 ± 0.08"},
      {"target": "RAB11FIP1 (UniProt Q6WKZ4)", "NP40-soluble protein abundance": "1.04 ± 0.026"},
      {"target": "UniProt Q7Z422 and related entries", "NP40-soluble protein abundance": "0.886 ± 0.1"},
      {"target": "PACS1 (UniProt Q6VY07)", "NP40-soluble protein abundance": "0.999 ± 0.029"},
      {"target": "UniProt Q6UW63", "NP40-soluble protein abundance": "1 ± 0.14"},
      {"target": "GPR180 (UniProt Q86V85)", "NP40-soluble protein abundance": "0.91 ± 0.12"},
      {"target": "ISCA2 (UniProt Q86U28)", "NP40-soluble protein abundance": "1.03 ± 0.052"},
      {"target": "UniProt Q86YP4 and related entries", "NP40-soluble protein abundance": "0.992 ± 0.03"},
      {"target": "UniProt Q75QN2 and related entries", "NP40-soluble protein abundance": "1.05 ± 0.023"},
      {"target": "UniProt Q7Z7A3", "NP40-soluble protein abundance": "0.9703 ± 0.0062"},
      {"target": "UniProt Q7L2E3-2|H7BXY3 and related entries", "NP40-soluble protein abundance": "0.965 ± 0.063"},
      {"target": "PARG (UniProt Q86W56)", "NP40-soluble protein abundance": "1.02 ± 0.049"},
      {"target": "UniProt Q6UXH1 and related entries", "NP40-soluble protein abundance": "0.998 ± 0.033"},
      {"target": "HDDC2 (UniProt Q7Z4H3)", "NP40-soluble protein abundance": "0.818 ± 0.17"},
      {"target": "RSRC2 (UniProt Q7L4I2)", "NP40-soluble protein abundance": "1.1 ± 0.046"},
      {"target": "CYB5R4 (UniProt Q7L1T6)", "NP40-soluble protein abundance": "1.05 ± 0.064"},
      {"target": "UniProt Q86TI0 and related entries", "NP40-soluble protein abundance": "1.032 ± 0.0083"},
      {"target": "UniProt Q86XN7 and related entries", "NP40-soluble protein abundance": "0.943 ± 0.098"},
      {"target": "UniProt Q86UX7 and related entries", "NP40-soluble protein abundance": "1.05 ± 0.12"},
      {"target": "UniProt Q7Z434 and related entries", "NP40-soluble protein abundance": "0.9761 ± 0.0046"},
      {"target": "HOMER1 (UniProt Q86YM7)", "NP40-soluble protein abundance": "0.951 ± 0.048"},
      {"target": "CAND1 (UniProt Q86VP6)", "NP40-soluble protein abundance": "0.987 ± 0.043"},
      {"target": "UniProt Q7L8W6", "NP40-soluble protein abundance": "1.06 ± 0.093"},
      {"target": "UniProt Q86SK9 and related entries", "NP40-soluble protein abundance": "0.901 ± 0.057"},
      {"target": "UniProt Q7Z2Z1 and related entries", "NP40-soluble protein abundance": "0.988 ± 0.14"},
      {"target": "UniProt Q7Z5L9 and related entries", "NP40-soluble protein abundance": "0.976 ± 0.03"},
      {"target": "UniProt Q6ZVM7 and related entries", "NP40-soluble protein abundance": "0.996 ± 0.1"},
      {"target": "UniProt Q6PI26 and related entries", "NP40-soluble protein abundance": "1.06 ± 0.074"},
      {"target": "UniProt Q7Z2Z2", "NP40-soluble protein abundance": "1.04 ± 0.055"},
      {"target": "CMC1 (UniProt Q7Z7K0)", "NP40-soluble protein abundance": "0.921 ± 0.041"},
      {"target": "UniProt Q8IUF8", "NP40-soluble protein abundance": "1.13 ± 0.086"},
      {"target": "ANKMY2 (UniProt Q8IV38)", "NP40-soluble protein abundance": "0.994 ± 0.04"},
      {"target": "UniProt Q6PJW8 and related entries", "NP40-soluble protein abundance": "1.04 ± 0.031"},
      {"target": "TMEM173 (UniProt Q86WV6)", "NP40-soluble protein abundance": "1.03 ± 0.028"},
      {"target": "MEPCE (UniProt Q7L2J0)", "NP40-soluble protein abundance": "1.03 ± 0.077"},
      {"target": "ADAT2 (UniProt Q7Z6V5)", "NP40-soluble protein abundance": "0.899 ± 0.078"},
      {"target": "UniProt Q7RTV0", "NP40-soluble protein abundance": "1.04 ± 0.016"}
    ]},
    {"compound": "Nc1ncnc2c1ncn2[C@@H]1O[C@H](COP(=O)(O)OP(=O)(O)OP(=O)(O)O)[C@@H](O)[C@H]1O [adenosine triphosphate]", "experiment": "NP40-soluble protein abundance relative to vehicle (solubility fold change) (ratio); higher = more soluble protein in presence of ATP", "details": "concentration: 0.5mM", "outline": "as §1", "values": [
      {"target": "CYFIP1 (UniProt Q7L576)", "NP40-soluble protein abundance": "1.07 ± 0.049"},
      {"target": "UniProt Q71SY5 and related entries", "NP40-soluble protein abundance": "0.969 ± 0.12"},
      {"target": "RAB11FIP1 (UniProt Q6WKZ4)", "NP40-soluble protein abundance": "1.03 ± 0.058"},
      {"target": "UniProt Q7Z422 and related entries", "NP40-soluble protein abundance": "0.837 ± 0.11"},
      {"target": "PACS1 (UniProt Q6VY07)", "NP40-soluble protein abundance": "0.994 ± 0.02"},
      {"target": "UniProt Q6UW63", "NP40-soluble protein abundance": "0.998 ± 0.1"},
      {"target": "GPR180 (UniProt Q86V85)", "NP40-soluble protein abundance": "1.08 ± 0.014"},
      {"target": "ISCA2 (UniProt Q86U28)", "NP40-soluble protein abundance": "0.996 ± 0.056"},
      {"target": "UniProt Q86YP4 and related entries", "NP40-soluble protein abundance": "0.983 ± 0.074"},
      {"target": "UniProt Q75QN2 and related entries", "NP40-soluble protein abundance": "1.044 ± 0.0037"},
      {"target": "UniProt Q7Z7A3", "NP40-soluble protein abundance": "1.02 ± 0.16"},
      {"target": "UniProt Q7L2E3-2|H7BXY3 and related entries", "NP40-soluble protein abundance": "0.874 ± 0.088"},
      {"target": "PARG (UniProt Q86W56)", "NP40-soluble protein abundance": "1.02 ± 0.048"},
      {"target": "UniProt Q6UXH1 and related entries", "NP40-soluble protein abundance": "0.948 ± 0.08"},
      {"target": "HDDC2 (UniProt Q7Z4H3)", "NP40-soluble protein abundance": "0.82 ± 0.24"},
      {"target": "RSRC2 (UniProt Q7L4I2)", "NP40-soluble protein abundance": "1.26 ± 0.12"},
      {"target": "CYB5R4 (UniProt Q7L1T6)", "NP40-soluble protein abundance": "1.07 ± 0.12"},
      {"target": "UniProt Q86TI0 and related entries", "NP40-soluble protein abundance": "1.033 ± 0.0094"},
      {"target": "UniProt Q86XN7 and related entries", "NP40-soluble protein abundance": "0.905 ± 0.14"},
      {"target": "UniProt Q86UX7 and related entries", "NP40-soluble protein abundance": "1.02 ± 0.041"},
      {"target": "UniProt Q7Z434 and related entries", "NP40-soluble protein abundance": "0.9659 ± 0.0082"},
      {"target": "HOMER1 (UniProt Q86YM7)", "NP40-soluble protein abundance": "0.9359 ± 0.0062"},
      {"target": "CAND1 (UniProt Q86VP6)", "NP40-soluble protein abundance": "0.996 ± 0.024"},
      {"target": "UniProt Q7L8W6", "NP40-soluble protein abundance": "1.09 ± 0.09"},
      {"target": "UniProt Q86SK9 and related entries", "NP40-soluble protein abundance": "0.926 ± 0.028"},
      {"target": "UniProt Q7Z2Z1 and related entries", "NP40-soluble protein abundance": "1.02 ± 0.019"},
      {"target": "UniProt Q7Z5L9 and related entries", "NP40-soluble protein abundance": "0.9497 ± 0.0036"},
      {"target": "UniProt Q6ZVM7 and related entries", "NP40-soluble protein abundance": "0.926 ± 0.029"},
      {"target": "UniProt Q6PI26 and related entries", "NP40-soluble protein abundance": "1.05 ± 0.074"},
      {"target": "UniProt Q7Z2Z2", "NP40-soluble protein abundance": "1.05 ± 0.049"},
      {"target": "CMC1 (UniProt Q7Z7K0)", "NP40-soluble protein abundance": "0.889 ± 0.1"},
      {"target": "UniProt Q8IUF8", "NP40-soluble protein abundance": "1.15 ± 0.052"},
      {"target": "ANKMY2 (UniProt Q8IV38)", "NP40-soluble protein abundance": "1.01 ± 0.035"},
      {"target": "UniProt Q6PJW8 and related entries", "NP40-soluble protein abundance": "0.994 ± 0.032"},
      {"target": "TMEM173 (UniProt Q86WV6)", "NP40-soluble protein abundance": "1.03 ± 0.05"},
      {"target": "MEPCE (UniProt Q7L2J0)", "NP40-soluble protein abundance": "1.06 ± 0.057"},
      {"target": "ADAT2 (UniProt Q7Z6V5)", "NP40-soluble protein abundance": "0.88 ± 0.12"},
      {"target": "UniProt Q7RTV0", "NP40-soluble protein abundance": "1.11 ± 0.035"}
    ]}
  ]
}
